Values quoted from earlier work as cited in patent publication US8067044B2, “Cosmetic compositions containing an extract of leaves of the Castanea sativa plant and cosmetic treatments” (Cognis France S.A.S., priority 2004, dated 2011).
At least one compound was matched to its structure with a doubt left.

Tested on: Raphanus sativus seed germination
Conditions: cited from earlier work

## C[C@@H]1O[C@@H](OC[C@H]2O[C@@H](Oc3c(-c4ccc(O)c(O)c4)oc4cc(O)cc(O)c4c3=O)[C@H](O)[C@@H](O)[C@@H]2O)[C@H](O)[C@H](O)[C@H]1O [rutin]
  percentage of seed germination and root and epicotyl growth: decrease
